Paper PMC12501252
Results are given in words; binding and its absence hold for the method and conditions named. For part of these data: Binding seen in cells or lysates may run through a third protein. Some entries that bind do so weakly or less than the wild type.

Sequences of proteins named here, by UniProt entry; tags and fusion partners are left off. Residues count along the entry.
UniProt Q07021, residues 74-282: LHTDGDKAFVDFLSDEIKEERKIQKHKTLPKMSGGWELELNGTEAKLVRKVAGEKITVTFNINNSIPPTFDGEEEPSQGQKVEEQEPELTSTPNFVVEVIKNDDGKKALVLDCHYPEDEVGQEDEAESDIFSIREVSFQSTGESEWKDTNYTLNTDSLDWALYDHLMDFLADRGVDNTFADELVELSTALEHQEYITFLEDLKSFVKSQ

T1: CHCHD2 (human) (human (endogenous in HEK293T)) (UniProt Q9Y6H1)
T1 sequence: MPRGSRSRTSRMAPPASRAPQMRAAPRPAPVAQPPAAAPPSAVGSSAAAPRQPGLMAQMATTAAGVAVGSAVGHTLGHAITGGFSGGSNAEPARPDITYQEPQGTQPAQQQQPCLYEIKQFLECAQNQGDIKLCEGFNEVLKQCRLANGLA

T2: CHCHD10 (human) (human (endogenous in HEK293T)) (UniProt Q8WYQ3)
T2 sequence: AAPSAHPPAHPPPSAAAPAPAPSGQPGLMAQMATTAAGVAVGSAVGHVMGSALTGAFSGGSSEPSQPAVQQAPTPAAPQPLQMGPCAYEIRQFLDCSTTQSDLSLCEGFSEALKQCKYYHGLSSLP

T3: CHCHD3 (mouse) (mouse (endogenous in mouse tissues)) (UniProt Q9CRB9)
T3 sequence: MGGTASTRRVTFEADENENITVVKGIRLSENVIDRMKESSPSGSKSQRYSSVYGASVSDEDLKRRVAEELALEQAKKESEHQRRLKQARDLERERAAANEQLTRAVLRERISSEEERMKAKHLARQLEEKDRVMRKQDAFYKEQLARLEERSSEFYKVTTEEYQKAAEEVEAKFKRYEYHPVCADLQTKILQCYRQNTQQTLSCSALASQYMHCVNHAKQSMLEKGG


What was measured:
[1] = molecular target: T1, CHCHD2 (human) (human (endogenous in HEK293T)); assay: co-IP; endogenous CHCHD2 or CHCHD10 immunoprecipitated with antibodies on Dynabeads Protein G from mitochondria of HEK293T cells lysed in 10 mM Tris-HCl pH 7.5, 150 mM NaCl, 1% digitonin; 2 h at 4 °C; eluates analysed by Western blot
[2] = molecular target: T2, CHCHD10 (human) (human (endogenous in HEK293T)); assay: as above
[3] = molecular target: T3, CHCHD3 (mouse) (mouse (endogenous in mouse tissues)); assay: native gel or EMSA; two-dimensional BN-PAGE/SDS-PAGE with Western blot; mitochondria from brain, heart and skeletal muscle of Chchd2+/+ and Chchd2-/- mice, and from heart, skeletal muscle and liver of mouse models of mitochondrial dysfunction (RNaseH1, Tfam, Tefm knockouts, IMT treatment) and controls; solubilised in 1% DDM or 1% digitonin

Row | Molecule | binding [1] | binding [2] | binding [3]
1 | p32 (C1QBP) (human) (from UniProt Q07021 74-282) | binds | binds | –
2 | CHCHD2 (mouse) (protein, UniProt Q9D1L0 1-153) MPRGSRSRTSRVTPPASRAPQMRAAPRRAPAAQPPAAAAPSAVGSPAAAPRQPGLMAQMATTAAGVAVGSAVGHTLGHAITGGFSGGGSAEPAKPDITYQEPQGAQLQNQQSFGPCSLEIKQFLECAQNQSDVKLCEGFNEVLRQCRIANGLM | – | – | no binding
